Reference: US11266609B2, “Bacitracin and/or daptomycin combined with cannabidiol for treatment of bacterial infections” (priority 2017, dated 2022)
Where two headings read alike, the source gives them in different places. Some entries share one result that the patent states for a list of compounds. Positions of bridges follow the written chain, without caps; N, C: chain ends. Non-standard residues stand in square brackets, D forms with d. Residues, ends and D or L forms follow the SMILES beside them. *: point of attachment. Ileψ(thiazoline)Cys = CC[C@H](C)[C@H](N)C1=N[C@H](C(=O)*)CS1; dOrn = NCCC[C@@H](N)C(=O)O

Test system: MRSA USA300 FPR3757
Format: cell-based, Staphylococcus aureus
Conditions: for FIC Index: WT USA300, combination of cannabidiol with the respective antibiotic, synergy <= 0.5, no interaction 0.5-4.0, antagonism > 4; for FIC indices: MRSA USA300, combined with either bacitracin or daptomycin
Description: The resistant bacterium MRSA USA300 FPR3757 (USA300) was the main used bacterium throughout this study. MRSA was grown in Brain Heart Infusion (BHI) or Müeller Hinton (MH) media on plate or in liquid cultures with agitation at 37° C.
An ON culture was made by inoculating a bacterial colony in either 5 mL of MH or BHI and incubating at 37° C. with agitation. The antibiotic of interest was added to a row of a sterile 96-well plate (VWR) and a serial dilution was made down the rows containing 50 μL of MH or BHI media in each well, resulting in 2-fold dilution for each row. The ON culture was diluted to OD625 at approximately 1.0 followed by a 1:100 dilution to approximately OD625=0.01 of which 50 μL was added to each well to a final volume of 100 μL. The 96-well plate was incubated at 37° C. with shaking at 225 rpm for approximately 18-24 hours. Presence and absence of growth were determined by visual appearance.
B) The other screen was based on fractional inhibitory concentration (FIC) index.

Row | Structure (SMILES) | FIC indices | further results
1 | CC[C@H](C)[C@H](N)C1=N[C@H](C(=O)N[C@@H](CC(C)C)C(=O)N[C@H](CCC(=O)O)C(=O)N[C@H](C(=O)N[C@H]2CCCCNC(=O)[C@H](CC(N)=O)NC(=O)[C@@H](CC(=O)O)NC(=O)[C@H](Cc3cnc[nH]3)NC(=O)[C@@H](Cc3ccccc3)NC(=O)[C@H]([C@@H](C)CC)NC(=O)[C@@H](CCCN)NC2=O)[C@@H](C)CC)CS1 [Bacitracin] ({Ileψ(thiazoline)Cys}-L[dE]IK[dOrn]I[dF]H[dD]N; lactam 4-C) | – | FIC Index (listed as bacitracin): below 0.5
2 | C=C(C)[C@@H]1CCC(C)=C[C@H]1c1c(O)cc(CCCCC)cc1O [Cannabidiol (CBD), Cannabidiol] | above 0.5 | –
3 | CCCCCc1cc(O)c(C/C=C(\C)CCC=C(C)C)c(O)c1 [Cannabigerol (CBG), Cannabigerol] | above 0.5 | –
4 | CN[C@H](CC(C)C)C(=O)N[C@H]1C(=O)N[C@@H](CC(N)=O)C(=O)N[C@H]2C(=O)N[C@H]3C(=O)N[C@H](C(=O)N[C@H](C(=O)O)c4cc(O)cc(O)c4-c4cc3ccc4O)[C@H](O)c3ccc(c(Cl)c3)Oc3cc2cc(c3O[C@@H]2O[C@H](CO)[C@@H](O)[C@H](O)[C@H]2O[C@H]2C[C@](C)(N)[C@H](O)[C@H](C)O2)Oc2ccc(cc2Cl)[C@H]1O [Vancomycin] | – | FIC Index (listed as vancomycin): ≥ 1
